Source: PubChem BioAssay AID602196 (INSERM, 2012)
In all, the deposit lists about 23,000 reagents; this is a random part of them. In the full data, 455 (2%) got an active call. 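Active includes both protection and sensitisation; some change values fall well beyond the stated -50 to +50 range.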 Unmarked entries are inactive. Further read-outs or replicates are left out here. Not stated in the record: the amount of reagent.

Purpose: 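Modifiers of cisplatin sensitivity in A549 cells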
Cells: human A549 lung cancer cells
Reagents: siRNA pair against human genes
Duration: 48 h transfection before cisplatin; time from cisplatin to read-out not stated
Treatment: cisplatin at a dose killing half of control-siRNA cells; exact dose and duration not given
Measured: 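Shift in cisplatin death relative to control siRNA, from -50 (all cells die) to +50 (no cells die); siRNAs harmful on their own scored 0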
Reading the numbers: two-siRNA summed score (-2 to +2): higher = both siRNAs protect from cisplatin killing; -2 means both sensitise
Call rule: 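siRNAs harmful alone (LDH or WST-1) get 0; others get +1 for less and -1 for more cisplatin killing; genes are active when the two siRNAs give the same sign, summing to ±2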
Calls: active = both siRNAs shift cisplatin killing the same way; inactive = no consistent shift, or siRNA harmful alone

Depletion of CARD19 [SID131513912] resulted in: two-siRNA summed score (-2 to +2) = 0. Depletion of CXCL3 [SID131502133] came out at: two-siRNA summed score (-2 to +2) = -1. For LOC441231 [SID131520108] the deposit lists two-siRNA summed score (-2 to +2) = 1. For SLC4A1 [SID131509926], the entry reads two-siRNA summed score (-2 to +2) = 0. Knock-down of SH2D1A [SID131509118] resulted in: two-siRNA summed score (-2 to +2) = 0. Knock-down of GPN2 [SID131508339] came out at: two-siRNA summed score (-2 to +2) = 0.

Knock-down of TUBA4A [SID131513262] came out at: two-siRNA summed score (-2 to +2) = 0. With knock-down of SCAF8 [SID131520381] the results were two-siRNA summed score (-2 to +2) = 1. With knock-down of LOC388461 [SID131518335], the screen gave two-siRNA summed score (-2 to +2) = 0. LOC440677 [SID131518280] showed two-siRNA summed score (-2 to +2) = 0. Depletion of RAPGEF1 [SID131506924] gave: two-siRNA summed score (-2 to +2) = 0. For LOC285643 [SID131518944], the entry reads two-siRNA summed score (-2 to +2) = 1.

VPS13D [SID131520129] showed two-siRNA summed score (-2 to +2) = 1. For NR2C1 [SID131511101], the values are two-siRNA summed score (-2 to +2) = 0. Knock-down of KRTAP2-2 [SID131513206] resulted in: two-siRNA summed score (-2 to +2) = 0. NAAA [SID131515420] scored two-siRNA summed score (-2 to +2) = 0. With knock-down of TAC1 [SID131505774] the results were two-siRNA summed score (-2 to +2) = 0. Depletion of MUTYH [SID131510392] came out at: two-siRNA summed score (-2 to +2) = 0.

Entries above whose gene name starts with S or s:
SLC4A1 [SID131509926] | two-siRNA summed score (-2 to +2): 0
SH2D1A [SID131509118] | two-siRNA summed score (-2 to +2): 0
SCAF8 [SID131520381] | two-siRNA summed score (-2 to +2): 1

The results go on:
C1orf146 [SID131516973] showed two-siRNA summed score (-2 to +2) = 0. Silencing of KCNB2 [SID131514334] gave: two-siRNA summed score (-2 to +2) = 0. With knock-down of ARHGAP22 [SID131515084], the screen gave two-siRNA summed score (-2 to +2) = 0. Against LOC283464 [SID131516909], the entry reads two-siRNA summed score (-2 to +2) = 0. F8 [SID131514329] gave two-siRNA summed score (-2 to +2) = 0. With knock-down of CPSF3 [SID131508113], the record shows two-siRNA summed score (-2 to +2) = 0.

MUCL1 [SID131509142] gave two-siRNA summed score (-2 to +2) = 0. ETF1 [SID131522674] gave two-siRNA summed score (-2 to +2) = 1. Against ZMYND15 [SID131504052], the values are two-siRNA summed score (-2 to +2) = 0. DUOX2 [SID131505420] showed two-siRNA summed score (-2 to +2) = 0. After knock-down of RASGEF1C [SID131506434] the results were two-siRNA summed score (-2 to +2) = 0. FLJ25756 [SID131521904] gave two-siRNA summed score (-2 to +2) = 1.

LOC391437 [SID131518268] scored two-siRNA summed score (-2 to +2) = 0.
